Values joined by “and” are separate entries in the source; they are usually repeats but may differ in a detail not shown here. Identical values can stand only once. ± gives the standard deviation of the averaged measurements. The list shows a part of the results. Some well-known active drugs show little effect in this data set, so a weak value is uncertain.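 Human mesenchymal stem cells lacking the Werner syndrome gene, which age prematurely, were used. Automated live-cell imaging tracked growth across three biological repeats; the twenty drugs raising growth most relative to vehicle advanced, without a stated fixed cutoff.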 Peptide text beside a SMILES is read from it.
Test system: Werner syndrome hMSCs (WRN-/-)
Assay: relative cell density (fold change vs vehicle control); higher = more proliferation (geroprotective)
Conditions: concentration (umol/L): 1, 6 days

Compound	relative cell density (vehicle: DMSO)	relative cell density (vehicle: Water)
COc1ccc(-c2ccc3cc(C(=O)O)ccc3c2)cc1C12CC3CC(CC(C3)C1)C2	0.586	
CN1CCN(c2ccc3nc(-c4c(N)c5c(F)cccc5[nH]c4=O)[nH]c3c2)CC1	0.384 and 0.369	
O=c1[nH]c(=O)n([C@H]2C[C@H](O)[C@@H](CO)O2)cc1I	1.26	
Cc1cccc(N(C)C(=S)Oc2ccc3ccccc3c2)c1	1.18	
C=CCNC1=C2C[C@@H](C)C[C@H](OC)[C@H](O)[C@@H](C)/C=C(\C)[C@H](OC(N)=O)[C@@H](OC)/C=C\C=C(/C)C(=O)NC(=CC1=O)C2=O	0.345	
O=C(O)c1cccnc1	1.05	
CCCCc1oc2ccccc2c1C(=O)c1cc(I)c(OCCN(CC)CC)c(I)c1	1.54	
COC(=O)[C@H](Cc1ccccc1)NC(=O)[C@@H](N)CC(=O)O (H-Asp-Phe-OMe)	1.09	
NC(=O)C1CCCc2c1[nH]c1ccc(Cl)cc21 (stereo not given)	1.32	
CO/N=C(\C(=O)N[C@@H]1C(=O)N2C(C(=O)O)=C(COC(C)=O)CS[C@H]12)c1csc(N)n1	1.32	
C[C@]12CC[C@@H]3c4ccc(O)cc4C[C@@H](CCCCCCCCC[S+]([O-])CCCC(F)(F)C(F)(F)F)[C@H]3[C@@H]1CC[C@@H]2O (stereo not given in full)	1.13	
CNC(=O)[C@@H](NC(=O)[C@H](CC(C)C)[C@H](O)C(=O)NO)C(C)(C)C	0.928	
Cc1cc(Nc2cc(N3CCN(C)CC3)nc(Sc3ccc(NC(=O)C4CC4)cc3)n2)n[nH]1	0.717	
Clc1ccc2nsnc2c1NC1=NCCN1	0.912	
CC(=O)Nc1nnc(S(N)(=O)=O)s1	1.23	
CC(C)Oc1ccc2c(=O)c(-c3ccccc3)coc2c1	1.36	
C[N+](C)(C)CC(O)CC(=O)[O-] (stereo not given)	1.23 and 1.41	
N#C/C(=C1/SC[C@@H](c2ccc(Cl)cc2Cl)S1)n1ccnc1	1.12	
O=C1O[C@H]([C@@H](O)CO)C([O-])=C1O.[Na+]		0.887
CCCCOc1cc(C(=O)OCCN(CC)CC)ccc1N	1.13	
NC[C@H](O)c1ccc(O)c(O)c1	1.21	
CCN(CC)CCNC(=O)c1ccc(N)cc1	1.3	
CCc1cc2c(cc1CC)CC(NC[C@H](O)c1ccc(O)c3[nH]c(=O)ccc13)C2	1.54	

Compound	relative cell density (vehicle: DMSO)	relative cell density (vehicle: Water)
Cc1c(-c2ccc(O)cc2)n(Cc2ccc(OCCN3CCCCCC3)cc2)c2ccc(O)cc12	1.29 and 1.1	
C=C[C@]1(C)C[C@@H](OC(=O)CSC(C)(C)CNC(=O)[C@H](N)C(C)C)[C@]2(C)[C@H](C)CC[C@]3(CCC(=O)[C@H]32)[C@@H](C)[C@@H]1O	1.08	
O=C(O)C1=C(CSc2nnnn2CS(=O)(=O)O)CS[C@@H]2[C@H](NC(=O)[C@H](O)c3ccccc3)C(=O)N12	0.914	
CC(C)[N+]1(C)[C@@H]2CC[C@H]1C[C@@H](OC(=O)C(CO)c1ccccc1)C2 (stereo not given in full)	0.967	
Cc1ccc(-c2cc(C(F)(F)F)nn2-c2ccc(S(N)(=O)=O)cc2)cc1	1.1	
O=C(O)c1cccc(-c2noc(-c3ccccc3F)n2)c1	0.998	
Nc1ccc(S(=O)(=O)Nc2nccs2)cc1	1.09 ± 0.023	
CN[C@H]1CC[C@@H](c2ccc(Cl)c(Cl)c2)c2ccccc21	1.08	
CC[C@H]1OC(=O)[C@H](C)[C@@H](O[C@H]2C[C@@](C)(OC)[C@@H](O)[C@H](C)O2)[C@H](C)[C@@H](O[C@@H]2O[C@H](C)C[C@H](N(C)C)[C@H]2O)[C@](C)(O)C[C@@H](C)CN(C)[C@H](C)[C@@H](O)[C@]1(C)O	1.05 and 1.02	
CN1CCc2nc(C(=O)N[C@@H]3C[C@@H](C(=O)N(C)C)CC[C@@H]3NC(=O)C(=O)Nc3ccc(Cl)cn3)sc2C1	1.41	
NC[C@H]1O[C@H](O[C@H]2[C@H](O)[C@@H](O[C@H]3O[C@H](CO)[C@@H](O)[C@H](N)[C@H]3O)[C@H](N)C[C@@H]2N)[C@H](N)C[C@@H]1O		1.09 ± 0.066
O=C(/C=C/c1cccc(S(=O)(=O)Nc2ccccc2)c1)NO	0.259	
CCOC(=O)/C=C(C)/C=C/C=C(C)/C=C/c1c(C)cc(OC)c(C)c1C	1.36	
CC(C)(C)c1cc(NC(=O)Nc2ccc(-c3cn4c(n3)sc3cc(OCCN5CCOCC5)ccc34)cc2)no1	0.65	
COc1cc2nc(N3CCN(C(=O)C4COc5ccccc5O4)CC3)nc(N)c2cc1OC (stereo not given)	1.07	
N[C@H]1CONC1=O	1.04	
CNC(=O)c1ccc(N2C(=S)N(c3ccc(C#N)c(C(F)(F)F)c3)C(=O)C2(C)C)cc1F	0.889	
CC#CCn1c(N2CCC[C@@H](N)C2)nc2c1c(=O)n(Cc1nc(C)c3ccccc3n1)c(=O)n2C	1.46	
CCN(CCCCOC(=O)c1ccc(OC)c(OC)c1)C(C)Cc1ccc(OC)cc1 (stereo not given)	1.13	
CCN(CC)C(=O)C1(c2ccccc2)CC1CN (stereo not given)	1.02	
Cc1cc(C(C)(C)C)cc(C)c1CC1=NCCN1	0.948	
CC#C[C@]1(O)CC[C@H]2[C@@H]3CCC4=CC(=O)CCC4=C3[C@@H](c3ccc(N(C)C)cc3)C[C@@]21C	0.994	
CC[C@@H]1C(=O)N(C)c2cnc(Nc3ccc(C(=O)N[C@H]4CC[C@H](N5CCN(CC6CC6)CC5)CC4)cc3OC)nc2N1C(C)C	0.345	

Compound	relative cell density (vehicle: DMSO)	relative cell density (vehicle: Water)
Nc1nc(=O)n([C@@H]2CS[C@H](CO)O2)cc1F	1.09	
COc1ccc(Cl)cc1C(=O)NCCc1ccc(S(=O)(=O)NC(=O)NC2CCCCC2)cc1	0.83	
CCCCCCNC(=O)n1cc(F)c(=O)[nH]c1=O	0.616	
CCC[C@@H]1C[C@@H](C(=O)N[C@@H]([C@H]2O[C@H](SC)[C@H](OP(=O)(O)O)[C@@H](O)[C@H]2O)[C@H](C)Cl)N(C)C1		1.1
[Cl][Mn][Cl]		1.5
Cc1nc(C(=O)NCC(=O)O)c(O)c2ccc(Oc3ccccc3)cc12	1.06	
CC(C)(Oc1ccc(Cl)cc1)C(=O)OCCOC(=O)c1cccnc1	1.23	
CC1(C)O[C@@H]2C[C@H]3[C@@H]4C[C@H](F)C5=CC(=O)C=C[C@]5(C)[C@@]4(F)[C@@H](O)C[C@]3(C)[C@]2(C(=O)CO)O1	1.26	
Cc1cc(C)nc(NS(=O)(=O)c2ccc(N)cc2)n1	1.09	
CC(C)[C@H](N)C(=O)OCCOCn1cnc2c(=O)nc(N)[nH]c21	1.07	
CC[C@H](NC(=O)[C@H](C)NC)C(=O)N1C[C@@H](O)C[C@H]1Cc1c(-c2[nH]c3cc(F)ccc3c2C[C@@H]2C[C@H](O)CN2C(=O)[C@H](CC)NC(=O)[C@H](C)NC)[nH]c2cc(F)ccc12	1.02	
CN1CCN2c3ncccc3Cc3ccccc3C2C1 (stereo not given)	1.29	
C[C@@H]1C/C=C/C=C/C=C/C=C/[C@H](O[C@@H]2O[C@H](C)[C@@H](O)[C@H](N)[C@@H]2O)C[C@@H]2O[C@](O)(C[C@@H](O)C[C@H]3O[C@@H]3/C=C/C(=O)O1)C[C@H](O)[C@H]2C(=O)O	1.01	
CC(C(O)c1ccc(O)cc1)N1CCC(Cc2ccccc2)CC1 (stereo not given)	1.02	
CCn1c(=O)c2c(nc(/C=C/c3ccc(OC)c(OC)c3)n2C)n(CC)c1=O	1.03	
O=C(c1ccc(F)cc1)C1CCN(CCn2c(=O)[nH]c3ccccc3c2=O)CC1		0.764
Clc1ccc2c(c1)CCc1cccnc1C2=C1CCNCC1	1.04	
O=C1NCC2(CCN(CCc3ccccc3)CC2)O1	0.18	
CCS(=O)(=O)N1CC(CC#N)(n2cc(-c3ncnc4[nH]ccc34)cn2)C1	1.66	
Cc1[nH]cnc1CN1CCc2c(c3ccccc3n2C)C1=O		1.66
CO[C@H]1/C=C/O[C@@]2(C)Oc3c(C)c(O)c4c(O)c(c5c(nc6cc(C)ccn65)c4c3C2=O)NC(=O)/C(C)=C\C=C\[C@H](C)[C@H](O)[C@@H](C)[C@@H](O)[C@@H](C)[C@H](OC(C)=O)[C@@H]1C	0.847	
CCCCCOc1ccccc1/C(=C\SC)n1ccnc1	1.15	
Clc1cccc(Cl)c1NC1=NCCN1	1.24	

Compound	relative cell density (vehicle: DMSO)	relative cell density (vehicle: Water)
C[C@]12C=CC(=O)N[C@@H]1CC[C@@H]1[C@@H]2CC[C@]2(C)[C@@H](C(=O)Nc3cc(C(F)(F)F)ccc3C(F)(F)F)CC[C@@H]12	0.863	
CCCNC(=O)NS(=O)(=O)c1ccc(Cl)cc1	1.36	
COc1ccc(Cl)c(Nc2nc3ccccc3nc2NS(=O)(=O)c2cccc(NC(=O)C(C)(C)N)c2)c1	0.885	
CC(=O)O[C@]1(C(C)=O)CC[C@H]2[C@@H]3C=C(Cl)C4=CC(=O)CC[C@]4(C)[C@H]3CC[C@@]21C	1.23	
Cc1cnc(Nc2ccc(OCCN3CCCC3)cc2)nc1Nc1cccc(S(=O)(=O)NC(C)(C)C)c1	0.455	
CNCCc1ccccn1	1.03	
NCCCCCC(=O)O	0.887	
CN(C)C(=N)NC(=N)N	1.22	
Nc1nc2c(ncn2COC(CO)CO)c(=O)[nH]1	1.18	
CCOC(=O)[C@H]1O[C@@H]1C(=O)N[C@@H](CC(C)C)C(=O)NCCC(C)C	1.23	
CC(C)NCC(O)COc1ccc(CC(N)=O)cc1 (stereo not given)	1.41	
Cn1c(=O)c2c(ncn2CC2OCCO2)n(C)c1=O	1.2	
CC(C)(C)c1cc(C(C)(C)C)c(NC(=O)c2c[nH]c3ccccc3c2=O)cc1O	1.01	
Cc1ccc([C@@H]2O[C@H](CO)[C@@H](O)[C@H](O)[C@H]2O)cc1Cc1ccc(-c2ccc(F)cc2)s1	1.13	
CN1CCN(CC(=O)N2c3ccccc3C(=O)Nc3cccnc32)CC1		0.871
CCCCC(CC)COC(=O)CC(C(=O)OCC(CC)CCCC)S(=O)(=O)O (stereo not given)	1.21	
Nc1ncnc2c1ncn2[C@@H]1O[C@H](CO)[C@@H](O)[C@@H]1O	1.48	
CCOc1nc2cccc(C(=O)O)c2n1Cc1ccc(-c2ccccc2-c2nnn[nH]2)cc1	1.12	
C[C@@](Cc1ccc(O)c(O)c1)(NN)C(=O)O	1.19	
CN(C)CCC(c1ccc(Br)cc1)c1ccccn1 (stereo not given)	0.959	
O=c1[nH]c2ccccc2n1CCN1CCN(c2cccc(C(F)(F)F)c2)CC1	1.12	
